Measured values as given in paper PMC12809119.
These are yes or no findings as the source states them, for the method shown. In cells and extracts the contact can be indirect. Some binding calls cover weakened binding; strength is not graded here.

The chains behind the UniProt entries cited, without tags or fusion partners. Where a name states a change or a piece, a line headed by the entry shows the natural chain unless it says otherwise.
UniProt O60678: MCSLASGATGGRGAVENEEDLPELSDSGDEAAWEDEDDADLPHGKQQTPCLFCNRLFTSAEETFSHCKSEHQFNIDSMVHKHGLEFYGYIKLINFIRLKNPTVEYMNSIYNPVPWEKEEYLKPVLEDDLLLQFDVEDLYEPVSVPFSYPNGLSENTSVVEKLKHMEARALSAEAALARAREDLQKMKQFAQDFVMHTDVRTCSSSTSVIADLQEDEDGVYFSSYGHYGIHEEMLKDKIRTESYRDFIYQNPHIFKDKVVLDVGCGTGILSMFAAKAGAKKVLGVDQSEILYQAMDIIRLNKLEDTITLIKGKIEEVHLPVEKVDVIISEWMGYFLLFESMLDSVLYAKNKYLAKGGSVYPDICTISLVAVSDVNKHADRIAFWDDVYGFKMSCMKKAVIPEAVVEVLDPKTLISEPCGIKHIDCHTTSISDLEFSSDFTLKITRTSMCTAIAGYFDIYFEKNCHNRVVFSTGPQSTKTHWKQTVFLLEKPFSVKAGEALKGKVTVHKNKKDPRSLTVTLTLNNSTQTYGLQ
UniProt P05549: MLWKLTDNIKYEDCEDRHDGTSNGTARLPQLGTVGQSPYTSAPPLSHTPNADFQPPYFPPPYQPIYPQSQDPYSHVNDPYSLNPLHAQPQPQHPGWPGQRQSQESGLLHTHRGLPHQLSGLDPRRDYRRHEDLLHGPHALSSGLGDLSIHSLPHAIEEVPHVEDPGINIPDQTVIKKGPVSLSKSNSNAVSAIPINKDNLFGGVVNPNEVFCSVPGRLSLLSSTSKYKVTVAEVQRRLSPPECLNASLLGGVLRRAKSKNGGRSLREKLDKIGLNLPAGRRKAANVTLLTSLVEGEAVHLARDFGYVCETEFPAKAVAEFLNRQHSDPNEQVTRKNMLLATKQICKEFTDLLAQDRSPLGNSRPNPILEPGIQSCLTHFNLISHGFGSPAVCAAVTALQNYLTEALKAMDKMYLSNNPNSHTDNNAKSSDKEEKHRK
UniProt P14902: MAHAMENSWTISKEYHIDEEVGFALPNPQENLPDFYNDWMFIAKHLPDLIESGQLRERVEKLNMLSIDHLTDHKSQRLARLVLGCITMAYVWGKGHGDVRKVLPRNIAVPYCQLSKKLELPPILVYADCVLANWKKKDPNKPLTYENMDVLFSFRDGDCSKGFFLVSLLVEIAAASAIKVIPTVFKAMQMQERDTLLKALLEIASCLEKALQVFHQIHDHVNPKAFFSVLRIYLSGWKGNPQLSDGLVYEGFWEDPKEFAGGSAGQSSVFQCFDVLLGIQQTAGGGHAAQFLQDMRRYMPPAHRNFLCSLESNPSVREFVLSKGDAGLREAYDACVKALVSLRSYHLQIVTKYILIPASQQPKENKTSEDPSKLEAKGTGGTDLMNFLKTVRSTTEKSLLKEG

What was measured:
[1] = biological target: protein arginine methyltransferase-3 (PRMT3) (human) (UniProt O60678); test: co-IP; co-IP kit (absin abs955); lysate precleared with protein A and protein G, IP primary antibody or IgG overnight at 4°C, protein A/G overnight at 4°C, Western blot
[2] = biological target: transcription factor TFAP2A (human) (UniProt P05549); test: cross-linking; 2 mmol/L disuccinimidyl suberate on PBS-cleaned cells, room temperature 30 minutes, stopped with Tris-HCl, cells lysed, Western blot; cells with PRMT3 overexpressed, knocked down or inhibited by SGC707

binding [1] | binding [2] | Substance
no binding | – | TFAP2A R363K mutant (from UniProt P05549 1-437)
no binding | – | indoleamine 2,3-dioxygenase 1 (IDO1) (from UniProt P14902 1-403) (enzyme)
binds | binds | transcription factor TFAP2A (from UniProt P05549 1-437)
